Measured values published in article doi:10.1101/2025.05.30.657000.
Read-outs that look alike come from different tables or passages of the source. Results are given in words; binding and its absence hold for the method and conditions named. In cells and extracts the contact can be indirect. Here binding means that the protein was enriched with, or labelled near, the bait; the list need not be complete.

By UniProt entry, the sequences of proteins in these tests, tags left out. Where a name states a change or a piece, a line headed by the entry shows the natural chain unless it says otherwise.
UniProt Q07817: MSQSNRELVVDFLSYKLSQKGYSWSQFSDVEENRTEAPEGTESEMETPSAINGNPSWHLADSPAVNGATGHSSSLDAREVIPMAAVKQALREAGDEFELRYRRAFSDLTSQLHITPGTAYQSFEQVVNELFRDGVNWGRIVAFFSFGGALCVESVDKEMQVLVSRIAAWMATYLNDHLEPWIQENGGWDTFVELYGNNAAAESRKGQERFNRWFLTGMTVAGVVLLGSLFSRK
UniProt P10415: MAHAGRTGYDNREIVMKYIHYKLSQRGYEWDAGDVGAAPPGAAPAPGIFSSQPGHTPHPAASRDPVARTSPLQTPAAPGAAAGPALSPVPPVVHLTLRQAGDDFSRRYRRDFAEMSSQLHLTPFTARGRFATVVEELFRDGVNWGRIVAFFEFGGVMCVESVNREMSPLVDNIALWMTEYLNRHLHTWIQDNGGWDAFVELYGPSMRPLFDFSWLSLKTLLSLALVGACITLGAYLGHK
UniProt Q07812: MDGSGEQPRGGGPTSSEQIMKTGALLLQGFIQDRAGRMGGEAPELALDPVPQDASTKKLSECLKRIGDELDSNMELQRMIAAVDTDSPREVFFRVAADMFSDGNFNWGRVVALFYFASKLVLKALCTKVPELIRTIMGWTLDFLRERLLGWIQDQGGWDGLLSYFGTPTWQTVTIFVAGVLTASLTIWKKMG
UniProt Q14318: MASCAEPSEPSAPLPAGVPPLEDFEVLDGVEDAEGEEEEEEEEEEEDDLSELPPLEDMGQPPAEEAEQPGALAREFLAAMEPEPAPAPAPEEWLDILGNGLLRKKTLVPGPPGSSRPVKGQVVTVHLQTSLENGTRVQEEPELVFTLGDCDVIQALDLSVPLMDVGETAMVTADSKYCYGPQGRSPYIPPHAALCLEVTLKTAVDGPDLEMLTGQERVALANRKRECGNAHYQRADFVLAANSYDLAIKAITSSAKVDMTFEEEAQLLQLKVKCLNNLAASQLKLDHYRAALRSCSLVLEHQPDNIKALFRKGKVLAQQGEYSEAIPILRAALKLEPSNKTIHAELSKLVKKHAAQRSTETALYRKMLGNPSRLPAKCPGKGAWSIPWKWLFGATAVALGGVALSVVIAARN
UniProt Q9BXK5: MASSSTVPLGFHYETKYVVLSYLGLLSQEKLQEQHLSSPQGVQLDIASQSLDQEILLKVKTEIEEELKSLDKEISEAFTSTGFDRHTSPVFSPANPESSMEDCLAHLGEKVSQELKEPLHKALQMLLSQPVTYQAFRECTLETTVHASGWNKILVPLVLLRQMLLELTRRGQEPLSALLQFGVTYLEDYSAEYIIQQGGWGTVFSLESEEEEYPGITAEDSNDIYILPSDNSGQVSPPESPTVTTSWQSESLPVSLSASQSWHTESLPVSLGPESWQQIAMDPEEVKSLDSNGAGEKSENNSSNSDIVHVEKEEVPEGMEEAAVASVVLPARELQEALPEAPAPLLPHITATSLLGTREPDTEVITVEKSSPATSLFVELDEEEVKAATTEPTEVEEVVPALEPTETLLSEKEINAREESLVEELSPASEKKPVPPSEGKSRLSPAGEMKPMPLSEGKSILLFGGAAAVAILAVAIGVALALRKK
UniProt Q9Y2I7: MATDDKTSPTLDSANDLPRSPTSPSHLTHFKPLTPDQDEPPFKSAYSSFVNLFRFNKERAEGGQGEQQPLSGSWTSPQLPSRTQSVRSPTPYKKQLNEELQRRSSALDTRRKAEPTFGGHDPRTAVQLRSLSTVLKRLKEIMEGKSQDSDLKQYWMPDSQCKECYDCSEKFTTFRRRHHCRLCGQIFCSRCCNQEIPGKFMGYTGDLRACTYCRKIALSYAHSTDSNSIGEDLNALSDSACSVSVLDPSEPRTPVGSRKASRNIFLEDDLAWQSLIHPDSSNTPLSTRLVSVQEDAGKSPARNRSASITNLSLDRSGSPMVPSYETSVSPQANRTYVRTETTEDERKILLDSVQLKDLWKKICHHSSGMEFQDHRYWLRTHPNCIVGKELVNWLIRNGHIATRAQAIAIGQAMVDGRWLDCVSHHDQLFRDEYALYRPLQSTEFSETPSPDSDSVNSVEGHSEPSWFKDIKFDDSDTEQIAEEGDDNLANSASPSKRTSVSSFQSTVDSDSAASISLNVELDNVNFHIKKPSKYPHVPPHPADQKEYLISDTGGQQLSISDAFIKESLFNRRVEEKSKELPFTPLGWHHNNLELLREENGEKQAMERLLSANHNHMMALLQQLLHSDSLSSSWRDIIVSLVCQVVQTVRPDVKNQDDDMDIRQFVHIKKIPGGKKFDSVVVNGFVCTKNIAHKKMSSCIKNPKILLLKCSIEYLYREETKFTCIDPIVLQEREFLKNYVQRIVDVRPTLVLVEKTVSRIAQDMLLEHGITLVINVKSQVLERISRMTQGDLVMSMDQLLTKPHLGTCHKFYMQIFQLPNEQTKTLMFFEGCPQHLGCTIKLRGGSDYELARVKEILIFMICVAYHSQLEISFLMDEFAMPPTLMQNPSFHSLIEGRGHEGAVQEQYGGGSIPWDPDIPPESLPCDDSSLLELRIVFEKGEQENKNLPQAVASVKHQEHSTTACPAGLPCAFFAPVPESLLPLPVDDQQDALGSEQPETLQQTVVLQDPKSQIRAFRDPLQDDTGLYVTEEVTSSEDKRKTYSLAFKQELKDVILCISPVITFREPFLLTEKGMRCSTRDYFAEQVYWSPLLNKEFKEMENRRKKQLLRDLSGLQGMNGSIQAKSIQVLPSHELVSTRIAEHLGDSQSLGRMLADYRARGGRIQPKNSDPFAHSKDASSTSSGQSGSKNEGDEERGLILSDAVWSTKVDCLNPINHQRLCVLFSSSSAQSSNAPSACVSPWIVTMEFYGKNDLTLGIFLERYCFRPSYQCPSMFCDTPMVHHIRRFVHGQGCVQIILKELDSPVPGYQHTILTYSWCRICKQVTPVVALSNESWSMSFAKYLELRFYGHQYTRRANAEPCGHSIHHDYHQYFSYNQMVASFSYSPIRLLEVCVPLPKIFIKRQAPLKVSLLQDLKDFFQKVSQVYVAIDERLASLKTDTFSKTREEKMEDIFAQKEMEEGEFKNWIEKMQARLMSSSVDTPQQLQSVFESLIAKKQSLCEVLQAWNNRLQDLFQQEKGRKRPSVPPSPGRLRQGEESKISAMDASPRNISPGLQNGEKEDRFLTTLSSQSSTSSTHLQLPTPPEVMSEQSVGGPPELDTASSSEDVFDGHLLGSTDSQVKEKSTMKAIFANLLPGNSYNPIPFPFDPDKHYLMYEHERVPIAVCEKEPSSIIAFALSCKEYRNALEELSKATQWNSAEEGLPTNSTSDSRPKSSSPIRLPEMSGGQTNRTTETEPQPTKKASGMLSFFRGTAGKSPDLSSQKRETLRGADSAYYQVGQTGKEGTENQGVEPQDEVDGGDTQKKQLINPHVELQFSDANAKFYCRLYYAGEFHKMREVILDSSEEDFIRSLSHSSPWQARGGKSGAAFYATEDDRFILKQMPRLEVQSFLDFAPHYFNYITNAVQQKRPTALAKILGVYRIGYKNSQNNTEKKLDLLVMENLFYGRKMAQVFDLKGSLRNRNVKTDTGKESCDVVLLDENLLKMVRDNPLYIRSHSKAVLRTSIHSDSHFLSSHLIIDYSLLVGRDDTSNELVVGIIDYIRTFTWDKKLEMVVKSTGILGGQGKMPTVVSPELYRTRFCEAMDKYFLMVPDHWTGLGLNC
UniProt P13861: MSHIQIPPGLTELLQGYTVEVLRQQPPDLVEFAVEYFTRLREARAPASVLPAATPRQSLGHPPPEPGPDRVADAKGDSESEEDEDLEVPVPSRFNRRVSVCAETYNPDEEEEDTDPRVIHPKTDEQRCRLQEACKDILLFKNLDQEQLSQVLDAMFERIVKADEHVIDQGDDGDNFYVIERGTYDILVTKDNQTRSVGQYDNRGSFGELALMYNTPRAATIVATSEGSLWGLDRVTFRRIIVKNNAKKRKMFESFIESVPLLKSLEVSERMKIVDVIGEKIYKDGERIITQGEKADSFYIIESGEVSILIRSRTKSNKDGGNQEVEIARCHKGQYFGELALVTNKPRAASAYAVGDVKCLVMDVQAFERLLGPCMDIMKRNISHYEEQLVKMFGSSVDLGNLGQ
UniProt O00429: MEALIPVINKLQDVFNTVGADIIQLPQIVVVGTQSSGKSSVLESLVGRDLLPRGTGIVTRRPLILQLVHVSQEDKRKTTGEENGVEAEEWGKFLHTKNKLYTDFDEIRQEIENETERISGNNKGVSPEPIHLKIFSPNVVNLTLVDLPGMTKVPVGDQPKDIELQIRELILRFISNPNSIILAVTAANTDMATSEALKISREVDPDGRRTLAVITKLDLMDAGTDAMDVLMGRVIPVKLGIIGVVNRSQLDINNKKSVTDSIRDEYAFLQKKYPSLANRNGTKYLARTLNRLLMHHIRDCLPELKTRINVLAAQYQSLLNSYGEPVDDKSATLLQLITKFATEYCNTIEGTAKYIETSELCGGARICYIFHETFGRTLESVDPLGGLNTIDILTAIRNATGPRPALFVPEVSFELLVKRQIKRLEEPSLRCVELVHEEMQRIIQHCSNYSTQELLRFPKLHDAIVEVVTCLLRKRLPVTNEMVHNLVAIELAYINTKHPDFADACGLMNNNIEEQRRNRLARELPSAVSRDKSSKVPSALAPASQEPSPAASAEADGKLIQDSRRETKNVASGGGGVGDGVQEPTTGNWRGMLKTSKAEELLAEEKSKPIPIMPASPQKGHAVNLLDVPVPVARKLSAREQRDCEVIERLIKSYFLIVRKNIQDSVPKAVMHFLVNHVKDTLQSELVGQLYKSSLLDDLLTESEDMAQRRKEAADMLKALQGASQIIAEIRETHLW
UniProt Q07065: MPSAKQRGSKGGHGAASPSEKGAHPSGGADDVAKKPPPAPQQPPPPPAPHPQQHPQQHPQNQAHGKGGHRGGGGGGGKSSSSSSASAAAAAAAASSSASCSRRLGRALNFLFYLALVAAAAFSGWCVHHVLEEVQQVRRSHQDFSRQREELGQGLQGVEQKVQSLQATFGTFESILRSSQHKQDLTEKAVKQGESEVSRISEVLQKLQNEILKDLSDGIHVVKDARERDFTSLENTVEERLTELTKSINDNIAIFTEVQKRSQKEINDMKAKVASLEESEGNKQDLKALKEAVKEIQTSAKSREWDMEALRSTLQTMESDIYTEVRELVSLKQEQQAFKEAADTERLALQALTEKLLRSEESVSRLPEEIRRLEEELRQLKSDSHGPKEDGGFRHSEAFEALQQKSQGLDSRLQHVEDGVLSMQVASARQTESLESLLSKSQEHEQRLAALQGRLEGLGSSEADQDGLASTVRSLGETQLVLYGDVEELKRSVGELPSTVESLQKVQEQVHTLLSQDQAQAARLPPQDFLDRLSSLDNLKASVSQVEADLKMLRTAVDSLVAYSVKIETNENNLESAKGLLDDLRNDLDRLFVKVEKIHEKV
UniProt Q7Z434: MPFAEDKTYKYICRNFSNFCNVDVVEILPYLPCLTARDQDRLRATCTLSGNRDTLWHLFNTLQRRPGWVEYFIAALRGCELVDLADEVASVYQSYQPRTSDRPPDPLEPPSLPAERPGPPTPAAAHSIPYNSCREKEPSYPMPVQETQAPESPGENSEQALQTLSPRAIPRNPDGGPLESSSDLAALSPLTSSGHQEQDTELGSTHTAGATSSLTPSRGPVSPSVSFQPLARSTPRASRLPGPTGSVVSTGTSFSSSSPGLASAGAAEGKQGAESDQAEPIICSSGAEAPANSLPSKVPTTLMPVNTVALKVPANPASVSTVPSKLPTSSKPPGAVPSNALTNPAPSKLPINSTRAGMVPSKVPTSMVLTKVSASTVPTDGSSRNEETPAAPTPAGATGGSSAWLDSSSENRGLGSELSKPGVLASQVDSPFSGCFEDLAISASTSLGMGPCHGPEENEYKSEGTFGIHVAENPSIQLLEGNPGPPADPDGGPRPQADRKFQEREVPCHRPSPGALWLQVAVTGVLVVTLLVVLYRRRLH

Columns and labels:
Test in all cases: proximity labelling
[1] = target: BirA*-Bcl-XL (UniProt Q07817)
[2] = target: BirA*-Bcl-2 (UniProt P10415)
[3] = target: BirA*-Bcl-XL (UniProt Q07817); remark: listed apart in the source
[4] = target: BirA*-BaxS184V (UniProt Q07812)
[5] = target: BirA*-BaxWT (UniProt Q07812)

| Substance | binding [1] | binding [2] | binding [4] | also measured |
| --- | --- | --- | --- | --- |
| FK506-binding protein 8 (from UniProt Q14318 1-412) | binds | – | – | – |
| SUN1 (from UniProt O94901 1-785) | – | binds | – | – |
| BCL2L13 (from UniProt Q9BXK5 1-485) | – | – | – | binding [3]: binds |
| PIKfyve (from UniProt Q9Y2I7 1-2098) | – | – | binds | binding [5]: binds |
| cAMP-dependent protein kinase type II regulatory subunit (from UniProt P13861 1-404) | binds | – | – | – |
| Drp1 (from UniProt O00429 1-736) | binds | binds | binds | binding [3]: binds |
| CKAP4 (from UniProt Q07065 1-602) | – | binds | – | – |
| MAVS (from UniProt Q7Z434 1-540) | – | – | binds | – |
